Data published in article PMC4666396.
Results are given in words; binding and its absence hold for the method and conditions named. Binding seen in cells or lysates may run through a third protein. These calls come from enrichment with a bait or labelling near it, and not all partners need be listed.

Sequences of proteins named here, by UniProt entry; tags and fusion partners are left off.
UniProt P62308: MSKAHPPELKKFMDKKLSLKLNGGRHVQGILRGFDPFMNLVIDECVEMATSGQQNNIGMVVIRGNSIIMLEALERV
UniProt P21127: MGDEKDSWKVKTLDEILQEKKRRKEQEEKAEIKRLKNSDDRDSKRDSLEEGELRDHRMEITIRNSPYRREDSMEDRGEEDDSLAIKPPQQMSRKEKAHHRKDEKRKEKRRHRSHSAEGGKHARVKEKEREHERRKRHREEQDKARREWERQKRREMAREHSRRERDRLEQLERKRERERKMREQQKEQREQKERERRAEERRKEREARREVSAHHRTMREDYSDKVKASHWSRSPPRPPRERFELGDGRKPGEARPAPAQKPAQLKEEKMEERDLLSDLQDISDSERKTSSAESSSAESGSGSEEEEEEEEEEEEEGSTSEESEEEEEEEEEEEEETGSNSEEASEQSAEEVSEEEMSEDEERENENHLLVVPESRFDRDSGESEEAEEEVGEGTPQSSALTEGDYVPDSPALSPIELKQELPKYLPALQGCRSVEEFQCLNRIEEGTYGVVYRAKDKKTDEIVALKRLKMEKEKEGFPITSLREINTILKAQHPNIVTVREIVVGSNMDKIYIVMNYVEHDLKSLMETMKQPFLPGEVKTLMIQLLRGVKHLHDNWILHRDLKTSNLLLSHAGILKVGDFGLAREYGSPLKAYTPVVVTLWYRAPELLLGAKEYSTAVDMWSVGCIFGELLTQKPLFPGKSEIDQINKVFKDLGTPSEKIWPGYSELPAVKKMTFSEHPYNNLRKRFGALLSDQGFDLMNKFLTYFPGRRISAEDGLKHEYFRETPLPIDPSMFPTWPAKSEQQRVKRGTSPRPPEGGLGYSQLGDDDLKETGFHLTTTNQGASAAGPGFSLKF
UniProt Q96SB4: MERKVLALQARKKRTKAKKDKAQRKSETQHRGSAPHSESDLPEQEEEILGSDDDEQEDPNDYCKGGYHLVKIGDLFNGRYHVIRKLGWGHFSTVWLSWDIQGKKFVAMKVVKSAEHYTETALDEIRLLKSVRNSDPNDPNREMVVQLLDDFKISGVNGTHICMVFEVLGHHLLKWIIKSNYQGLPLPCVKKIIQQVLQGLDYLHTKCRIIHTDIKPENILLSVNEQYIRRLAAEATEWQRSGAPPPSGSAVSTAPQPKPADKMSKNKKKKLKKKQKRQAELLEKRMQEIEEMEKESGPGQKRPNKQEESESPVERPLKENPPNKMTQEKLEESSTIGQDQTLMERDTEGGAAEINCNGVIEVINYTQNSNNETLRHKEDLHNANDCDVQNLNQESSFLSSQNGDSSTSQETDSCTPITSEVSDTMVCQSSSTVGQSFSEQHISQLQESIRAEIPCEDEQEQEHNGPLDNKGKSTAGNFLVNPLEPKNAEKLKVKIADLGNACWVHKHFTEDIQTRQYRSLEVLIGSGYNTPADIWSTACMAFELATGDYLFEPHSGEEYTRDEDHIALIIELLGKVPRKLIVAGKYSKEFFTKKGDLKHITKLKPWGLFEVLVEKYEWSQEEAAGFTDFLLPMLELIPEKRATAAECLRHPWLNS
UniProt Q9UQ35: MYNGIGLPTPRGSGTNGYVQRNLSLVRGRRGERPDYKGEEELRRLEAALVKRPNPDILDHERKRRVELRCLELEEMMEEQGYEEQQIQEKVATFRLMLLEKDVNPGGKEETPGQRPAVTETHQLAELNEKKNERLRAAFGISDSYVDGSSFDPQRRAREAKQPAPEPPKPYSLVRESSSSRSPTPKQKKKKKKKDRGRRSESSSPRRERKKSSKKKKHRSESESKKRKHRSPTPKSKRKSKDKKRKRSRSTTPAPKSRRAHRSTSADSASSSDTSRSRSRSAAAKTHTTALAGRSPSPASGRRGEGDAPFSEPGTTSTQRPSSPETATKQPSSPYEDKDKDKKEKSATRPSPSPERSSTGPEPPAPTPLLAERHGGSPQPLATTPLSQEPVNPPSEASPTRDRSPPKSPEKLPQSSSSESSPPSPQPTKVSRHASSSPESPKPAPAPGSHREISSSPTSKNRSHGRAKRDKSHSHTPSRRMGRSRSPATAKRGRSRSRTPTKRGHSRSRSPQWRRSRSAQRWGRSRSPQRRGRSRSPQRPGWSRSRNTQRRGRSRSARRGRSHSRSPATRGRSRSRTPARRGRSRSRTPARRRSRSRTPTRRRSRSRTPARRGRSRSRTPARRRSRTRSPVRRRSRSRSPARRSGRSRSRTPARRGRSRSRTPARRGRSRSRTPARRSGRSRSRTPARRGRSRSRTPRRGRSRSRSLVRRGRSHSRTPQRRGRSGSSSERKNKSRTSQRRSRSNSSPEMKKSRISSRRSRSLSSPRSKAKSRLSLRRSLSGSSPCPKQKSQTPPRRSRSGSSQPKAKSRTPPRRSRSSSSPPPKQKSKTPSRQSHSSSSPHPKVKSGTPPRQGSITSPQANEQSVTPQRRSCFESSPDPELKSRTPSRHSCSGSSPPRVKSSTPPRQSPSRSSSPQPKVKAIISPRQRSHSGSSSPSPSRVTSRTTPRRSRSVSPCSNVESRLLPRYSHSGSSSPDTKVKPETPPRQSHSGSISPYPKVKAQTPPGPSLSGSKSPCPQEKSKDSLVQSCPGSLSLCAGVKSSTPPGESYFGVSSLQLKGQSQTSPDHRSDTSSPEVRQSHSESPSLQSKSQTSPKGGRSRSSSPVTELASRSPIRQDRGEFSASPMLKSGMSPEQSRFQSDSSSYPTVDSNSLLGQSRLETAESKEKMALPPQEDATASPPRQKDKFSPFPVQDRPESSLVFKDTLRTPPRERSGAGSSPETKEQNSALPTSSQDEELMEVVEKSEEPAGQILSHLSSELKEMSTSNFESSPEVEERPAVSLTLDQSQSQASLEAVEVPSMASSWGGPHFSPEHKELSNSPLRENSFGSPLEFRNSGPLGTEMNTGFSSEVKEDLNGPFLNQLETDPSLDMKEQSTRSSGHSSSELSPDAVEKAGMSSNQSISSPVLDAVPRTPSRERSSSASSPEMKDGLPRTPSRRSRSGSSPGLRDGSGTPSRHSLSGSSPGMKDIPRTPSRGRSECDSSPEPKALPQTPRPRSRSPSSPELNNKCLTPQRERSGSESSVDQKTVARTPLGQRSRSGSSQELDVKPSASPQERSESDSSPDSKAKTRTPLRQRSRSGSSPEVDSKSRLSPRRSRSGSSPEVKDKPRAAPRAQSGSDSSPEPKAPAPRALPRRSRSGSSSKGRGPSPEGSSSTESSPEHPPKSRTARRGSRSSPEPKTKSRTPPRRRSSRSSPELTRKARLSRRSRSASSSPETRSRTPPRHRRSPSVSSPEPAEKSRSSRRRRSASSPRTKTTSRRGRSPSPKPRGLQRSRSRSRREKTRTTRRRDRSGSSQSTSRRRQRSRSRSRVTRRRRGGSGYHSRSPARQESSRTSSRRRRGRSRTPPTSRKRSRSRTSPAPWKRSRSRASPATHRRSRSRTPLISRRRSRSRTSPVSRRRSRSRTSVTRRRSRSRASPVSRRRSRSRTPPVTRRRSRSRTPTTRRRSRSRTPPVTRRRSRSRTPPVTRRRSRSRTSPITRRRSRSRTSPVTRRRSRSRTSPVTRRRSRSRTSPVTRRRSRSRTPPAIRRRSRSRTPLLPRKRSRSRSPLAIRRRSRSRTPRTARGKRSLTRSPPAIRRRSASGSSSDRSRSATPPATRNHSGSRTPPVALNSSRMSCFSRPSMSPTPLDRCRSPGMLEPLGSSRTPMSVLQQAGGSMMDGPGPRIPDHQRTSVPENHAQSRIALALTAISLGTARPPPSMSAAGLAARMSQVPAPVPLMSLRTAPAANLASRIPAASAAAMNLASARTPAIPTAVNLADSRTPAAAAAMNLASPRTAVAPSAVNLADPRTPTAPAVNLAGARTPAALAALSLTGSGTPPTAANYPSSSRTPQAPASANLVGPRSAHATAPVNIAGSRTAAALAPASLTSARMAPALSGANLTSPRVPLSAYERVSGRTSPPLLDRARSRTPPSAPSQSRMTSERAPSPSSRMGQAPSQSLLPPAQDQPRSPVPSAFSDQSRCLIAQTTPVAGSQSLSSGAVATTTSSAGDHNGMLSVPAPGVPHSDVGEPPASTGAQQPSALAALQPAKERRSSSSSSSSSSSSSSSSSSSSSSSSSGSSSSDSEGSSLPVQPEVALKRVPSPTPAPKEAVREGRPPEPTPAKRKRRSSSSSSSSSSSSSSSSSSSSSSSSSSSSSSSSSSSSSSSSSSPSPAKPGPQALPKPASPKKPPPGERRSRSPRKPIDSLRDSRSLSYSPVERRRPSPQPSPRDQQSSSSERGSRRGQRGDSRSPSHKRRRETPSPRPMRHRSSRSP
UniProt O75533: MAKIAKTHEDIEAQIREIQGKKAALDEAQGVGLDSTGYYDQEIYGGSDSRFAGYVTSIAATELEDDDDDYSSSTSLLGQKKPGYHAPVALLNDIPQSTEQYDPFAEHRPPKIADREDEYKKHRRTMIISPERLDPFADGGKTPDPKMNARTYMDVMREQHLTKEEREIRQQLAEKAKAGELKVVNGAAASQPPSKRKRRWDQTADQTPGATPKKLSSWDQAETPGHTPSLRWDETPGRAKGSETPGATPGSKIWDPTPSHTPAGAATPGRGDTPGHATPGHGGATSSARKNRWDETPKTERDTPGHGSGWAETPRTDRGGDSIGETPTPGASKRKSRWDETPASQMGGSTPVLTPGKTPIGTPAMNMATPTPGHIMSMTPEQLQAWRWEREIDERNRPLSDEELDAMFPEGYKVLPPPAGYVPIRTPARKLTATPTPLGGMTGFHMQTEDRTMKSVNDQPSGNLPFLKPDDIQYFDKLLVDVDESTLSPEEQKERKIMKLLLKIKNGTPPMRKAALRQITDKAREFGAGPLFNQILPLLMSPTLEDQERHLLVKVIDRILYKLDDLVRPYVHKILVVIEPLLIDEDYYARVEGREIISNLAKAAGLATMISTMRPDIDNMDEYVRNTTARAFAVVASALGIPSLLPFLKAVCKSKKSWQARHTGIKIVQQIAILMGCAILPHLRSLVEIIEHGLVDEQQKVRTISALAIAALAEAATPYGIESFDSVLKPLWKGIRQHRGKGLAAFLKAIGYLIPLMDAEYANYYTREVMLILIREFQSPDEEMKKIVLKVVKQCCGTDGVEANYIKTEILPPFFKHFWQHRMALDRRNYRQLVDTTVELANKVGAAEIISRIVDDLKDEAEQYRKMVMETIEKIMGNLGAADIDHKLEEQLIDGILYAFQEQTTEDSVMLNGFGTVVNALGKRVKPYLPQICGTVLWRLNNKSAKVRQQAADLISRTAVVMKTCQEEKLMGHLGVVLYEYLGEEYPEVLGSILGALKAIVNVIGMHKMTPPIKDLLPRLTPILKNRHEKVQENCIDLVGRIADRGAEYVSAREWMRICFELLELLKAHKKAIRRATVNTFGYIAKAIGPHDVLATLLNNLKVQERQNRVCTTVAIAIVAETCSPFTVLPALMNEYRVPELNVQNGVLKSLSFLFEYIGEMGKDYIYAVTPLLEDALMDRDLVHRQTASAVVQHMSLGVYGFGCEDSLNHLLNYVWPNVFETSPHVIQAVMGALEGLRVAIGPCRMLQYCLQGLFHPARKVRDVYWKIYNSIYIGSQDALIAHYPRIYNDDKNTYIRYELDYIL
UniProt P62304: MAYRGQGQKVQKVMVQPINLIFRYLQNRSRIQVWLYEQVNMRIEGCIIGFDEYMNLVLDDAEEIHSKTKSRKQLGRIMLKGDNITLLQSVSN
UniProt O43143: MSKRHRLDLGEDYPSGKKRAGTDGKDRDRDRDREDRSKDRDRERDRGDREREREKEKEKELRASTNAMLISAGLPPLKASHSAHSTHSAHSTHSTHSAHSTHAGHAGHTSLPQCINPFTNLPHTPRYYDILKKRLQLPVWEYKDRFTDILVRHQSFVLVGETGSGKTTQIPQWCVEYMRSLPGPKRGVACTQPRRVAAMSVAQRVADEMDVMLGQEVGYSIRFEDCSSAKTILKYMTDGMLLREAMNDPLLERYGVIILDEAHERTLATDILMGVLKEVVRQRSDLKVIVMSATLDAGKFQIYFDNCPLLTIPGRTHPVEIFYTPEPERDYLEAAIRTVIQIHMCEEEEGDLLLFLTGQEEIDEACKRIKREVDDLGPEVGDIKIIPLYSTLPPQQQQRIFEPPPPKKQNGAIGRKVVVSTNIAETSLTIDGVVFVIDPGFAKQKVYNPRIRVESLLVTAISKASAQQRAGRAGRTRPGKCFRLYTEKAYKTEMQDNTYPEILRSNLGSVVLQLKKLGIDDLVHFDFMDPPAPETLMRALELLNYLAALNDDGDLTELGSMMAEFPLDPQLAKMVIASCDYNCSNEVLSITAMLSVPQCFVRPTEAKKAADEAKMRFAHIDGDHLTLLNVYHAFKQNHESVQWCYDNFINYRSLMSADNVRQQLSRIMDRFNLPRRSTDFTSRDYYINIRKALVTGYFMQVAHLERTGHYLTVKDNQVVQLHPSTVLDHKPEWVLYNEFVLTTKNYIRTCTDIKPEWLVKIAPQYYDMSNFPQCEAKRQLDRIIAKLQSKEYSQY

biological target: T1, Splicing factor 1 (SF1) (human (endogenous in HeLa)) (UniProt Q15637); test: affinity purification with mass spectrometry; anti-SF1 on Protein G Sepharose; HeLa cell nuclear extract without or with 0.3 mg/ml RNase A; IP buffer 50 mM Tris-HCl pH 7.9, 100 mM NaCl, 0.05% NP-40, 0.5 mM DTT, 1 h 4°C; 1D PAGE, LC-MSMS; control mouse IgG
T1 sequence: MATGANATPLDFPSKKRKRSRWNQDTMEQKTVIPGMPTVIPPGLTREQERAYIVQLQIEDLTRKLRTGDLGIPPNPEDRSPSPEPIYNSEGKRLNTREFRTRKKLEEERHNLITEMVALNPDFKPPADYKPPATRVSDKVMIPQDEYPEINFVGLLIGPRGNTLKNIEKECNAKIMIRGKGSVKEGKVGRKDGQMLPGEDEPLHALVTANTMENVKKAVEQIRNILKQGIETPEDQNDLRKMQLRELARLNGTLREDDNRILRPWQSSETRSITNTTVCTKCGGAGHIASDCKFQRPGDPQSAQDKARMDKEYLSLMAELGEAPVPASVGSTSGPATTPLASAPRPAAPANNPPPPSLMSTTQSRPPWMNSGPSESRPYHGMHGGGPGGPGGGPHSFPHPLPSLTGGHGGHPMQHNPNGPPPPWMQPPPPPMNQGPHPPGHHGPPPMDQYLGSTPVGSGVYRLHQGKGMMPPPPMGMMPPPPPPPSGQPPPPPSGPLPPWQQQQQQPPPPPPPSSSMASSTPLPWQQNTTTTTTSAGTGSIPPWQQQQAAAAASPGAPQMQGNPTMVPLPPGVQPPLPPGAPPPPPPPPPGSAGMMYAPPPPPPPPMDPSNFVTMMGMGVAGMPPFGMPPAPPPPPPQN

binding | Substance
binds | Sm-G (from UniProt P62308 1-76)
binds | CDK11B (from UniProt P21127 1-795)
binds | ZFR (from UniProt Q96KR1 1-1074)
binds | U2 snRNP-associated SURP motif-containing protein (U2SURP) (from UniProt O15042 1-1029)
binds | HSPA4L (from UniProt O95757 1-839)
binds | SF3b145 (from UniProt Q13435 1-895)
binds | ZNF207 (from UniProt O43670 1-478)
binds | SRPK1 (from UniProt Q96SB4 1-655)
binds | CBP80 (from UniProt Q09161 1-790)
binds | SRm300 (from UniProt Q9UQ35 1-2752)
binds | BRD2 (from UniProt P25440 1-801)
binds | CKB (from UniProt P12277 1-381)
binds | SF3b155 (from UniProt O75533 1-1304)
binds | CDC5L (from UniProt Q99459 1-802)
binds | SF3b130 (from UniProt Q15393 1-1217)
binds | TOE1 (from UniProt Q96GM8 1-510)
binds | CYPH (from UniProt O43447 1-177)
binds | U1–70K (from UniProt P08621 1-437)
binds | hPRP28 (from UniProt Q9BUQ8 1-820)
binds | EIF3C (from UniProt Q99613 1-913)
binds | Sm-E (from UniProt P62304 1-92)
binds | U1-A (from UniProt P09012 1-282)
binds | hPRP43 (from UniProt O43143 1-795)
